Measured values taken from the supplement of paper PMC10849652.
The list shows a part of the results.

Amino acid sequences for entries named in this document (tags omitted). A change or cut given only in a name is not applied to a line headed by its entry.
UniProt Q7LGA3: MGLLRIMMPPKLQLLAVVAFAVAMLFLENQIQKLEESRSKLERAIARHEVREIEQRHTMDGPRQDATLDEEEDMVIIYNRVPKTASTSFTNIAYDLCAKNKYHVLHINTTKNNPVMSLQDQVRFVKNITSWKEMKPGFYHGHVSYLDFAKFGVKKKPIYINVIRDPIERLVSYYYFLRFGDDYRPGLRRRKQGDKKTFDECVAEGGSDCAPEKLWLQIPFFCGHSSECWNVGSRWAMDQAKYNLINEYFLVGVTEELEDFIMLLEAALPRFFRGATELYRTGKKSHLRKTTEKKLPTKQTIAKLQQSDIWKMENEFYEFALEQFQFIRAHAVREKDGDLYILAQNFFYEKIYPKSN
UniProt P08238, whole entry, looked up: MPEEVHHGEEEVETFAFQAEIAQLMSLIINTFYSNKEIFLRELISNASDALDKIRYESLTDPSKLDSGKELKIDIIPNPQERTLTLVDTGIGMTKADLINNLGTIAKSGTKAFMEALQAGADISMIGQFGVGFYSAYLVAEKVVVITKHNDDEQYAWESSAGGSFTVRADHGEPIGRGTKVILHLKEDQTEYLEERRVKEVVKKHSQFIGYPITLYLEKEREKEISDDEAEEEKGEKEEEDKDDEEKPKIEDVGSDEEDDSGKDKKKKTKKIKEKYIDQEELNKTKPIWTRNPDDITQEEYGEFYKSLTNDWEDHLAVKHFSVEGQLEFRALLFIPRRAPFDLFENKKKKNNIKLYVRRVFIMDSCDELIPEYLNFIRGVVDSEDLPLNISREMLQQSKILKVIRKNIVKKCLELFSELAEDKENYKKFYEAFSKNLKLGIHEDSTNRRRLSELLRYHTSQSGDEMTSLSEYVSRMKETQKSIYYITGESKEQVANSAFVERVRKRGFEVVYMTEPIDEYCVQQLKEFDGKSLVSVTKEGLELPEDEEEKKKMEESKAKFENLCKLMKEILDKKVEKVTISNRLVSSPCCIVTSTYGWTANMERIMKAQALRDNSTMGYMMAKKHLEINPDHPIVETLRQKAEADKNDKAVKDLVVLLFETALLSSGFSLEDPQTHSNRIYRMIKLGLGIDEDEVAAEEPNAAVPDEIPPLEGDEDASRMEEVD
UniProt Q3SXM5: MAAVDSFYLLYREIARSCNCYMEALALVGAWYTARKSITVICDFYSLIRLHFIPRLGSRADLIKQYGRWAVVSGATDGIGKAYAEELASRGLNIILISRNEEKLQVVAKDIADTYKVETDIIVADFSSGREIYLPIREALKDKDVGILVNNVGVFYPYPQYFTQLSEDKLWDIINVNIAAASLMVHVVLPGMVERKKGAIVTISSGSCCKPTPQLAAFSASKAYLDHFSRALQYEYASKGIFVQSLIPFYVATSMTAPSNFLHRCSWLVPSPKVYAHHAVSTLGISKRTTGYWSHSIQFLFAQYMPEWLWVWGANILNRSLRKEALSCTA
UniProt Q9NX55: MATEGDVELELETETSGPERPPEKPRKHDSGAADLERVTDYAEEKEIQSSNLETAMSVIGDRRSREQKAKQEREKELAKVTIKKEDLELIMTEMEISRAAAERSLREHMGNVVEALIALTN
UniProt Q8TCT9: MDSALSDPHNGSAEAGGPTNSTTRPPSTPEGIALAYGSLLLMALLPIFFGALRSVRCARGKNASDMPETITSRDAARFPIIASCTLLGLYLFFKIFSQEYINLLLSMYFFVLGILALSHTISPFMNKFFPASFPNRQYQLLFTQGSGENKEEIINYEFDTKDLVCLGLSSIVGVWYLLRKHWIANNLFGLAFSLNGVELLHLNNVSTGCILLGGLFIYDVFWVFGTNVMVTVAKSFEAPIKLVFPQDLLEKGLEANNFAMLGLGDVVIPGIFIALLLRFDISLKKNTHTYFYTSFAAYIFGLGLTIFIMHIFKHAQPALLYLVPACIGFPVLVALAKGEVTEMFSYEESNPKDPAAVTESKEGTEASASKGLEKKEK
UniProt P52789: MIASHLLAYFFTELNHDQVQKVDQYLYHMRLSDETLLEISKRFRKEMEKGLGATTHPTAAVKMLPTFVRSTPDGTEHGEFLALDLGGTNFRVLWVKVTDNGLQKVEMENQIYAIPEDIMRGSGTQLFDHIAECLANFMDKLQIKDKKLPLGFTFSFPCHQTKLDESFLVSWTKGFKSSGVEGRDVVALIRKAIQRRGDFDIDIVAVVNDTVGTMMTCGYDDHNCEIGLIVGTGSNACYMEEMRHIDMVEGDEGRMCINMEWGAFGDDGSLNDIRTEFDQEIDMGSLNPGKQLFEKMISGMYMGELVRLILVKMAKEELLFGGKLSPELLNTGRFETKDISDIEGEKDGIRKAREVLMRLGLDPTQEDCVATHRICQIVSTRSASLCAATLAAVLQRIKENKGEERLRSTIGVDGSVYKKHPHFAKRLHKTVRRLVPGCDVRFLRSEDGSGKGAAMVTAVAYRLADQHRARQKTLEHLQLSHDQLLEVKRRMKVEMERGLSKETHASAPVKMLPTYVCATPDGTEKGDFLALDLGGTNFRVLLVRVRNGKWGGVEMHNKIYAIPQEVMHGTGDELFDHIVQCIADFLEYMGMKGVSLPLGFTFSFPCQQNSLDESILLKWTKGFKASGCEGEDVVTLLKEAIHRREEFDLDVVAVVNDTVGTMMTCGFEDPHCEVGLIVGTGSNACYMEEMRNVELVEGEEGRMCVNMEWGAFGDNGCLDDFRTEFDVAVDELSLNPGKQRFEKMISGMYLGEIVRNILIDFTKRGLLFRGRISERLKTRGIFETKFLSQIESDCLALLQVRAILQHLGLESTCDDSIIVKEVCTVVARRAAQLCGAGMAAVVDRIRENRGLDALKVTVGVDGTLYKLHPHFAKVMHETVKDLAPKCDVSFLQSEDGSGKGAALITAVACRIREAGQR
UniProt O95757: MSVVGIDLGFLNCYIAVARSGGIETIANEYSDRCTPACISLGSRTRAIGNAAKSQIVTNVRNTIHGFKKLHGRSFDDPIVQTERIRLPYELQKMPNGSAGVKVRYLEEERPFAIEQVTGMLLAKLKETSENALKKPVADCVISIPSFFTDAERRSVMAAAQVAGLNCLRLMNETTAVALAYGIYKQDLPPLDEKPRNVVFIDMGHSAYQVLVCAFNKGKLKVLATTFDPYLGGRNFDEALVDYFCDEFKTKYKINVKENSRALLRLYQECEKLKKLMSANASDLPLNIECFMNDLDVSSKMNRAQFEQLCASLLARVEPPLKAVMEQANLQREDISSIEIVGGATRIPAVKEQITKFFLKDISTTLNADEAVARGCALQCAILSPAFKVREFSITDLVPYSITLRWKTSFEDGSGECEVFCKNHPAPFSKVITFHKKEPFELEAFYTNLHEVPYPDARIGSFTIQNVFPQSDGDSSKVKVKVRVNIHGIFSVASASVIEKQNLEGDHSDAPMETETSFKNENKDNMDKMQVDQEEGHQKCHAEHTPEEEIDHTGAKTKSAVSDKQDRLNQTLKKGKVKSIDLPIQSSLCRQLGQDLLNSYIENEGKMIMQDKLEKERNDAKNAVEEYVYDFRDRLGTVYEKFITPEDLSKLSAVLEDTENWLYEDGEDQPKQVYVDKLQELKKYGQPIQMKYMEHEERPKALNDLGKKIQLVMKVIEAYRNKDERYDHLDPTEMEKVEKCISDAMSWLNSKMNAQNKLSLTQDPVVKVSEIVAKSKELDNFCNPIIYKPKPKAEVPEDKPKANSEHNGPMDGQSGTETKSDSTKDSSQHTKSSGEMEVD
UniProt P38646: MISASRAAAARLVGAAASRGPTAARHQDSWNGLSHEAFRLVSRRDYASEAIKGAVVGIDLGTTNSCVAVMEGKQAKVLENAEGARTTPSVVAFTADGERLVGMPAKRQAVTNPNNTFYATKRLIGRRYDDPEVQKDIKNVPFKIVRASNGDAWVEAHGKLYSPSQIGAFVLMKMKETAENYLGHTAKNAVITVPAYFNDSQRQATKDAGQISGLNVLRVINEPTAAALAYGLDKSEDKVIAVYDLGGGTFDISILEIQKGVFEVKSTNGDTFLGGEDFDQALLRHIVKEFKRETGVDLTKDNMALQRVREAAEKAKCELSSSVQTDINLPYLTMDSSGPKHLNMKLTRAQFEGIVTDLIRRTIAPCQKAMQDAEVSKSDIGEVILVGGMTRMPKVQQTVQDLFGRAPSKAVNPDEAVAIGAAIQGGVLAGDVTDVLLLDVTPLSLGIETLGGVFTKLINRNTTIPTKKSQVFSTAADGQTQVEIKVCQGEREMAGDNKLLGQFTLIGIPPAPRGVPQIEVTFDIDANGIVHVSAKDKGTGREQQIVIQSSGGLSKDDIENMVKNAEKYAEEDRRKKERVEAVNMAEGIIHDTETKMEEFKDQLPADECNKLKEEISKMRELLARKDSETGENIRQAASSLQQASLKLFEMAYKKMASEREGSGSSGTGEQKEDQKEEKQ
UniProt Q14527: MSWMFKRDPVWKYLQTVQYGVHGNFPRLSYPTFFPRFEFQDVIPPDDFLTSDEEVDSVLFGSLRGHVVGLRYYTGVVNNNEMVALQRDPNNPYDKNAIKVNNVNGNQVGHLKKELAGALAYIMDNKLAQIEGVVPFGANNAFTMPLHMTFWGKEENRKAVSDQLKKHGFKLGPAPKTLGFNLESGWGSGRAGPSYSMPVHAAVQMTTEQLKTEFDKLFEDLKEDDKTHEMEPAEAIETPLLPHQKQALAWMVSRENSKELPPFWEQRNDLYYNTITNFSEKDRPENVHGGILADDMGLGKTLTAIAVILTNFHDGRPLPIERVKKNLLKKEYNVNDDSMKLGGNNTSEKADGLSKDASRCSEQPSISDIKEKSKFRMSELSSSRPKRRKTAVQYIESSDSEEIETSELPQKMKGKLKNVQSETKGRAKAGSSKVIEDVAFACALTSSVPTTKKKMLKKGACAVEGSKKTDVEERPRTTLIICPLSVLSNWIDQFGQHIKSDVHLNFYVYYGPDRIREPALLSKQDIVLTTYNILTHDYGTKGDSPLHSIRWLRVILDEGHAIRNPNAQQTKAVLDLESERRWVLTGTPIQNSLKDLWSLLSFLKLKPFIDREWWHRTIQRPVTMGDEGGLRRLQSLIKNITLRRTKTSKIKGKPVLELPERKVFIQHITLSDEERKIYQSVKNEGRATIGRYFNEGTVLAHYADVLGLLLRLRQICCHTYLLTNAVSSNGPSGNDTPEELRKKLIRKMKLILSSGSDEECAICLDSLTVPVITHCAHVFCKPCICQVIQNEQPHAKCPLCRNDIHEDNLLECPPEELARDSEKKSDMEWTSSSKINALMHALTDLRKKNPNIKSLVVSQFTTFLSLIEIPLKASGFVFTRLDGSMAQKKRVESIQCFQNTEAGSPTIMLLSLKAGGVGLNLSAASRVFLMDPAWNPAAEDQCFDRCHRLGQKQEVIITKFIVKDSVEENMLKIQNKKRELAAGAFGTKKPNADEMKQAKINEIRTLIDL
UniProt P49773: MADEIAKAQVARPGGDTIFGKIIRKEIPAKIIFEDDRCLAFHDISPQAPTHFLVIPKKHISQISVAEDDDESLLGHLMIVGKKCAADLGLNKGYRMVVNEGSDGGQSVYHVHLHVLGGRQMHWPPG
UniProt Q86YM7: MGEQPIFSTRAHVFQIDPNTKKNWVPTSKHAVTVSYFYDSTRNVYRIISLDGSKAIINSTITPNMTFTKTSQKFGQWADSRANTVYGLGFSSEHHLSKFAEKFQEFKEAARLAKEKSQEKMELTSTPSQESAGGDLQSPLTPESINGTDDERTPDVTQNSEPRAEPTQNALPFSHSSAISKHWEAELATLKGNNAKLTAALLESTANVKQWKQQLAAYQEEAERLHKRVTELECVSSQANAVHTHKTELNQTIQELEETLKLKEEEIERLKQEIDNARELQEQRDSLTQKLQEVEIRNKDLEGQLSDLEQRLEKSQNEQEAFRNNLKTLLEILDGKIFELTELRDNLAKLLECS
UniProt P31942: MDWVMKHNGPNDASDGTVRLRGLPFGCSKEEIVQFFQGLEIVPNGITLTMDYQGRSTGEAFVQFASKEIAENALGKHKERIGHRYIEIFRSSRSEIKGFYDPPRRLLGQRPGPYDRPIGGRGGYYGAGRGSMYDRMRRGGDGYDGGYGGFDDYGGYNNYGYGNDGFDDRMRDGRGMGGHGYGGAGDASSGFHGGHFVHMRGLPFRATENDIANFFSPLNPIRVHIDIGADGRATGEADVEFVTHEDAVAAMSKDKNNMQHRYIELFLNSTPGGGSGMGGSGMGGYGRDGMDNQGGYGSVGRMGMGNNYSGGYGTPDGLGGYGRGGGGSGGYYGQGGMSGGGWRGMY

How the values were obtained:
Experiment in all cases: log2 fold change, soluble protein after heating vs DMSO (PISA); higher = thermal stabilisation; K562 cells, 10 uM, 30 min; active = over 0.2 and 3.5 SD of the protein, either way, in both replicates (recomputed)
[1] = compound: COC1=CC=C(C=C1)CN2C=CC3=C2C=C(C=C3)C(=O)NO
Procedure, shortened: (§1)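 K562 cells at 2×10^6 cells/mL were treated for 30 min with 10 μM compound, and aliquots were heated for 3 min over 48°C-58°C before pooling. Extraction used PBS with 0.5% NP-40 at 4°C, and soluble protein was the supernatant after 21,000xg for 90 min, measured by TMTpro 16plex LC-MS/MS with channel sums equalised. Thermal stability values, relative to control samples and from duplicates, are log2 fold changes.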

filanesib = compound: CON(C)C(=O)N1N=C(c2cc(F)ccc2F)S[C@@]1(CCCN)c1ccccc1 [filanesib]
Procedure, shortened: as §1

zotarolimus = compound: CO[C@H]1C[C@@H]2CC[C@@H](C)[C@@](O)(O2)C(=O)C(=O)N2CCCC[C@H]2C(=O)O[C@H]([C@H](C)C[C@@H]2CC[C@H](n3cnnn3)[C@H](OC)C2)CC(=O)[C@H](C)/C=C(\C)[C@@H](O)[C@@H](OC)C(=O)[C@H](C)C[C@H](C)/C=C/C=C/C=C/1C [zotarolimus]
Procedure, shortened: as §1

idasanutlin = compound: COc1cc(C(=O)O)ccc1NC(=O)[C@@H]1N[C@@H](CC(C)(C)C)[C@](C#N)(c2ccc(Cl)cc2F)[C@H]1c1cccc(Cl)c1F [idasanutlin]
Procedure, shortened: as §1

alisertib = compound: COc1cc(Nc2ncc3c(n2)-c2ccc(Cl)cc2C(c2c(F)cccc2OC)=NC3)ccc1C(=O)O [alisertib]
Procedure, shortened: as §1

[2] = compound: COc1cc2nc(-c3cc(F)ccc3O)nc(N[C@@H]3CNC[C@H]3C(C)(C)O)c2cc1OC
Procedure, shortened: as §1

gefitinib = compound: COc1cc2ncnc(Nc3ccc(F)c(Cl)c3)c2cc1OCCCN1CCOCC1 [gefitinib]
Procedure, shortened: as §1

[3] = compound: COc1cccc2cc(-c3nc([C@H]4CC[C@H](C(=O)O)CC4)n4ncnc(N)c34)[nH]c12
Procedure, shortened: as §1

lapatinib = compound: CS(=O)(=O)CCNCc1ccc(-c2ccc3ncnc(Nc4ccc(OCc5cccc(F)c5)c(Cl)c4)c3c2)o1 [lapatinib]
Procedure, shortened: as §1

pictilisib = compound: CS(=O)(=O)N1CCN(Cc2cc3nc(-c4cccc5[nH]ncc45)nc(N4CCOCC4)c3s2)CC1 [pictilisib]
Procedure, shortened: as §1

Target: HS2ST1 (UniProt Q7LGA3)
- log2 fold change [1]: inactive: -0.122
- log2 fold change (filanesib): inactive: 0.066
- log2 fold change (zotarolimus): inactive: -0.017
- log2 fold change (idasanutlin): inactive: -0.041
- log2 fold change (alisertib): inactive: -0.081
- log2 fold change [2]: inactive: 0.035
- log2 fold change (gefitinib): inactive: -0.027
- log2 fold change [3]: inactive: 0.041
- log2 fold change (lapatinib): inactive: -0.014
- log2 fold change (pictilisib): inactive: 0.029

Target: HSP90AB1 (UniProt P08238)
- log2 fold change [1]: inactive: 0.046
- log2 fold change (filanesib): inactive: -0.096
- log2 fold change (zotarolimus): inactive: 0.052
- log2 fold change (idasanutlin): inactive: -0.028
- log2 fold change (alisertib): inactive: -0.042
- log2 fold change [2]: inactive: -0.039
- log2 fold change (gefitinib): inactive: -0.006
- log2 fold change [3]: inactive: -0.012
- log2 fold change (lapatinib): inactive: -0.001
- log2 fold change (pictilisib): inactive: -0.035

Target: HSDL1 (UniProt Q3SXM5)
- log2 fold change [1]: inactive: -0.092
- log2 fold change (filanesib): inactive: -0.057
- log2 fold change (zotarolimus): inactive: 0.049
- log2 fold change (idasanutlin): inactive: 0.01
- log2 fold change (alisertib): inactive: -0.044
- log2 fold change [2]: inactive: 0.046
- log2 fold change (gefitinib): inactive: 0.004
- log2 fold change [3]: inactive: 0.053
- log2 fold change (lapatinib): inactive: -0.032
- log2 fold change (pictilisib): inactive: 0.066

Target: HYPK (UniProt Q9NX55)
- log2 fold change [1]: inactive: -0.037
- log2 fold change (filanesib): inactive: -0.038
- log2 fold change (zotarolimus): inactive: 0.039
- log2 fold change (idasanutlin): inactive: -0.041
- log2 fold change (alisertib): inactive: -0.071
- log2 fold change [2]: inactive: 0.007
- log2 fold change (gefitinib): inactive: -0.016
- log2 fold change [3]: inactive: 0.022
- log2 fold change (lapatinib): inactive: -0.011
- log2 fold change (pictilisib): inactive: 0.041

Target: HPCAL1 (UniProt P37235)
- log2 fold change [1]: inactive: -0.085
- log2 fold change (filanesib): inactive: -0.128
- log2 fold change (zotarolimus): inactive: -0.017
- log2 fold change (idasanutlin): inactive: -0.062
- log2 fold change (alisertib): inactive: 0.002
- log2 fold change [2]: inactive: -0.012
- log2 fold change (gefitinib): inactive: -0.021
- log2 fold change [3]: inactive: 0.06
- log2 fold change (lapatinib): inactive: -0.027
- log2 fold change (pictilisib): inactive: 0.013

Target: HM13 isoform 2 (UniProt Q8TCT9)
- log2 fold change [1]: inactive: -0.078
- log2 fold change (filanesib): inactive: -0.083
- log2 fold change (zotarolimus): inactive: -0.019
- log2 fold change (idasanutlin): inactive: -0.06
- log2 fold change (alisertib): inactive: -0.005
- log2 fold change [2]: inactive: -0.041
- log2 fold change (gefitinib): inactive: 0.008
- log2 fold change [3]: inactive: 0.086
- log2 fold change (lapatinib): inactive: 0.01
- log2 fold change (pictilisib): inactive: -0.005

Target: HSP90AA1 isoform 2 (UniProt P07900)
- log2 fold change [1]: inactive: 0.001
- log2 fold change (filanesib): inactive: -0.069
- log2 fold change (zotarolimus): inactive: 0.049
- log2 fold change (idasanutlin): inactive: -0.017
- log2 fold change (alisertib): inactive: -0.049
- log2 fold change [2]: inactive: -0.005
- log2 fold change (gefitinib): inactive: -0.032
- log2 fold change [3]: inactive: -0.011
- log2 fold change (lapatinib): inactive: -0.002
- log2 fold change (pictilisib): inactive: -0.004

Target: HK2 (UniProt P52789)
- log2 fold change [1]: inactive: 0.035
- log2 fold change (filanesib): inactive: 0.031
- log2 fold change (zotarolimus): inactive: 0.03
- log2 fold change (idasanutlin): inactive: -0.064
- log2 fold change (alisertib): inactive: -0.124
- log2 fold change [2]: inactive: 0.097
- log2 fold change (gefitinib): inactive: -0.07
- log2 fold change [3]: inactive: 0.005
- log2 fold change (lapatinib): inactive: -0.206
- log2 fold change (pictilisib): active: -0.353

Target: HSPA4L (UniProt O95757)
- log2 fold change [1]: inactive: -0.028
- log2 fold change (filanesib): inactive: -0.012
- log2 fold change (zotarolimus): inactive: 0.037
- log2 fold change (idasanutlin): inactive: -0.039
- log2 fold change (alisertib): inactive: -0.01
- log2 fold change [2]: inactive: 0.035
- log2 fold change (gefitinib): inactive: 0.015
- log2 fold change [3]: inactive: 0.003
- log2 fold change (lapatinib): inactive: -0.014
- log2 fold change (pictilisib): inactive: -0.039

Target: HSPA9 (UniProt P38646)
- log2 fold change [1]: inactive: -0.01
- log2 fold change (filanesib): inactive: -0.071
- log2 fold change (zotarolimus): inactive: -0.026
- log2 fold change (idasanutlin): inactive: 0.008
- log2 fold change (alisertib): inactive: -0.062
- log2 fold change [2]: inactive: -0.015
- log2 fold change (gefitinib): inactive: 0.005
- log2 fold change [3]: inactive: 0.01
- log2 fold change (lapatinib): inactive: -0.029
- log2 fold change (pictilisib): inactive: -0.018

Target: HSPA8 (UniProt P11142)
- log2 fold change [1]: inactive: -0.008
- log2 fold change (filanesib): inactive: -0.035
- log2 fold change (zotarolimus): inactive: 0.005
- log2 fold change (idasanutlin): inactive: 0.018
- log2 fold change (alisertib): inactive: -0.036
- log2 fold change [2]: inactive: -0.004
- log2 fold change (gefitinib): inactive: 0.018
- log2 fold change [3]: inactive: -0.012
- log2 fold change (lapatinib): inactive: -0.018
- log2 fold change (pictilisib): inactive: -0.039

Target: HLTF (UniProt Q14527)
- log2 fold change [1]: inactive: -0.027
- log2 fold change (filanesib): inactive: -0.004
- log2 fold change (zotarolimus): inactive: -0.042
- log2 fold change (idasanutlin): inactive: -0.049
- log2 fold change (alisertib): inactive: 0.008
- log2 fold change [2]: inactive: 0.081
- log2 fold change (gefitinib): active: 0.334
- log2 fold change [3]: inactive: -0.126
- log2 fold change (lapatinib): inactive: 0.013
- log2 fold change (pictilisib): inactive: 0.007

Target: HINT1 (UniProt P49773)
- log2 fold change [1]: inactive: 0.085
- log2 fold change (filanesib): inactive: 0.021
- log2 fold change (zotarolimus): inactive: 0.009
- log2 fold change (idasanutlin): inactive: 0.027
- log2 fold change (alisertib): inactive: 0.019
- log2 fold change [2]: inactive: -0.068
- log2 fold change (gefitinib): inactive: 0.001
- log2 fold change [3]: inactive: 0.018
- log2 fold change (lapatinib): inactive: -0.093
- log2 fold change (pictilisib): inactive: 0.083

Target: HOMER1 (UniProt Q86YM7)
- log2 fold change [1]: inactive: 0.168
- log2 fold change (filanesib): inactive: 0.051
- log2 fold change (zotarolimus): inactive: 0.043
- log2 fold change (idasanutlin): inactive: 0.011
- log2 fold change (alisertib): inactive: -0.083
- log2 fold change [2]: inactive: -0.023
- log2 fold change (gefitinib): inactive: 0.086
- log2 fold change [3]: inactive: -0.042
- log2 fold change (lapatinib): inactive: 0.073
- log2 fold change (pictilisib): inactive: -0.001

Target: HNRNPH3 (UniProt P31942)
- log2 fold change [1]: inactive: -0.013
- log2 fold change (filanesib): inactive: 0.286
- log2 fold change (zotarolimus): inactive: 0.029
- log2 fold change (idasanutlin): inactive: 0.203
- log2 fold change (alisertib): inactive: -0.029
- log2 fold change [2]: inactive: -0.023
- log2 fold change (gefitinib): inactive: 0.014
- log2 fold change [3]: inactive: -0.157
- log2 fold change (lapatinib): inactive: -0.005
- log2 fold change (pictilisib): inactive: -0.09
